Laboratory results: paper PMC12068301
These are yes or no findings as the source states them, for the method shown. In cells and extracts the contact can be indirect. Some binding calls cover weakened binding; strength is not graded here. For some of these results: Where a sequence is shown, tags or fusion partners need not be part of it. One block for each molecule: values may come before it.

Protein sequences, listed by entry. Tags and fused reporters are not part of them.
UniProt Q6A4J8: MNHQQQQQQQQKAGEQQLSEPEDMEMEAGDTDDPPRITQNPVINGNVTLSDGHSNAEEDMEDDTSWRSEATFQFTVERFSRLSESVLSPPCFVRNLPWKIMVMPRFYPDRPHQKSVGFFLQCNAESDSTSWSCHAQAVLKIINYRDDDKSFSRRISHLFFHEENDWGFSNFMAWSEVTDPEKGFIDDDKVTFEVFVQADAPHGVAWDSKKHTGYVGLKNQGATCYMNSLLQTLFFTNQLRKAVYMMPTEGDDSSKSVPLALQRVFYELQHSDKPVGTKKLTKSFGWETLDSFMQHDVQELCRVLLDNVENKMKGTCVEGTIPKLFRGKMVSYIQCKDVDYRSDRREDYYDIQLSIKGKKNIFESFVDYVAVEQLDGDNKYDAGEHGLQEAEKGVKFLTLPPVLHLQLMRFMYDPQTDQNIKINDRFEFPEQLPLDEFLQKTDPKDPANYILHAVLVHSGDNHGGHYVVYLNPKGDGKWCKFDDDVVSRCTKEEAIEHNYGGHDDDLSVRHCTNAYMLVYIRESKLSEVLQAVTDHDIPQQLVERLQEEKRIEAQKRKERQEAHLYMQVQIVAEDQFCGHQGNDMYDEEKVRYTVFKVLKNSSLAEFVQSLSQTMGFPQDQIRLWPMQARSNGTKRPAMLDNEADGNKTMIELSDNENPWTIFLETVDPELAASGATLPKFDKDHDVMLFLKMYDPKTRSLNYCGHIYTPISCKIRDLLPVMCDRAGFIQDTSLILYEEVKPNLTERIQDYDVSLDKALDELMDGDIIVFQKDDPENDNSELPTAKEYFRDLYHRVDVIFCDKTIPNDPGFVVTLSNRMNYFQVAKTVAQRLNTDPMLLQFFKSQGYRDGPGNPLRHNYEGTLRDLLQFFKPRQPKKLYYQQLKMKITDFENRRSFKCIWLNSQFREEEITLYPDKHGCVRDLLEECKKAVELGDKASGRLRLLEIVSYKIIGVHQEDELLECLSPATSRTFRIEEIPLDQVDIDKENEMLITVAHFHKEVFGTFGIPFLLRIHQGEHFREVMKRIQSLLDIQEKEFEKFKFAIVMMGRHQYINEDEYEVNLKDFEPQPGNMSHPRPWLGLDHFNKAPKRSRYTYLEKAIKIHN
UniProt P61961: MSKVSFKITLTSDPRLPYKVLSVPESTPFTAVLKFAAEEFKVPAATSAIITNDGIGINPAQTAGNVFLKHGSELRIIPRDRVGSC
UniProt P31266: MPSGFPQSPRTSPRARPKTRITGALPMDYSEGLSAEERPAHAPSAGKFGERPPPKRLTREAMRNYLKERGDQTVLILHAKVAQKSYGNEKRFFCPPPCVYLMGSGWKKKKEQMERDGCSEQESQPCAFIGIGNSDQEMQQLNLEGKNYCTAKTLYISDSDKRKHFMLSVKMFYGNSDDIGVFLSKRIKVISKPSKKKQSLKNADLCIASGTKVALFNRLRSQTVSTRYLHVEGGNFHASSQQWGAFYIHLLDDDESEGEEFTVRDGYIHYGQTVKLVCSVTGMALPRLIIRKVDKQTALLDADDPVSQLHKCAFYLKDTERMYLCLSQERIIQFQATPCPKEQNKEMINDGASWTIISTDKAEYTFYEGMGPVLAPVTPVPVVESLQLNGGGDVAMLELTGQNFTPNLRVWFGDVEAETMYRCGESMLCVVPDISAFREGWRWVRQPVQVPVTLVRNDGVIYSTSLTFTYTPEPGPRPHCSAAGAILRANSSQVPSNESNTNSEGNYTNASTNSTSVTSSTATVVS

Tests used:
[1] = biological target: Myc-labeled USP7 (WT) (UniProt Q6A4J8); test: co-IP; CD3+ T cells co-transfected with tagged WT or domain-deficient mutants (Myc-USP7 with His-RBPJ, Flag-UFL1, GFP-UFM1 or Flag-UFSP2); immunoprecipitation and immunoblot
[2] = biological target: USP7 (mouse (endogenous in primary CD3+ T cells)) (UniProt Q6A4J8); test: co-IP; endogenous proteins; CD3+ T cell lysate with anti-IgG control or anti-USP7, -RBPJ, -UFL1, -UFM1 or -UFSP2 antibody 1 h at 4°C, Protein A/G magnetic beads 2 h at 4°C; 5% lysate as input; immunoblot
[3] = biological target: USP7 (mouse (endogenous in primary CD3+ T cells)) (UniProt Q6A4J8); test: co-IP; binding of USP7 and UFL1 in CD3+ T cells treated with Dorsomophine (10 μM), A-769662 (3 μM) or with Cd36-OE
[4] = biological target: USP7 (mouse (endogenous in primary CD3+ T cells)) (UniProt Q6A4J8); test: co-IP; binding of USP7 and UFL1 in Cd36-KO CD3+ T cells
[5] = biological target: USP7 (mouse (endogenous in primary CD3+ T cells)) (UniProt Q6A4J8); test: co-IP; endogenous proteins; CD3+ T cell lysate with anti-IgG control or anti-USP7, -RBPJ, -UFL1, -UFM1 or -UFSP2 antibody 1 h at 4°C, Protein A/G magnetic beads 2 h at 4°C; 5% lysate as input; immunoblot; remark: listed apart in the source
[6] = biological target: USP7 (mouse (endogenous in primary CD3+ T cells)) (UniProt Q6A4J8); test: condition: only in CD3+ T cells with 3Q of CD36 (three N-glycosylation sites mutated); co-IP; binding of USP7 and UFL1 in CD3+ T cells with CD36 mutated at three N-glycosylation sites (3Q)

binding [1]: binds
B1: Flag-labeled UFL1 (WT) (enzyme, UniProt Q8CCJ3 1-793)
chain: MADAWEEIRRLAADFQRAQFAESTQRLSERNCIEIVNKLISQKQLEVVHTLDGKEYITPAQISKEMRDELHVRGGRVNIVDLQQVINVDLTHIESRVSDIIKSEKHVQMVLGQLIDENYLDQLSEEVNDKLQESGQVTVSELCKAYDLPGDFLTQALTQRLGRIINGHLDLDNRGVIFTEAFVARHKARIRGLFSAITRPTPVNSLVSKYGFQEQLLYSVLEDLVSTGRLRGTVVGGRQDKAVFVPDIYSRTQSTWVDSFFRQNGYLEFDALSRLGIPDAVNYIKKRYKNTQLLFLKATCVGQGLVDQVEASVEEAISSGTWVDISPLLPSSLSVEDAAMLLQQVMRPFGKLASAIVFSDTVVVSEKFITDCTGLFSERMHQKAEKEMKNNPVHLITEEDLKQISILESVNTSKKDKKDERRKKATEGSGSVRGGGGGNAREYKIKKTKKKGRKDEDSDDESQSSHGGKKKPDITFMFQDEIEDCLRKHIQDAPEEFISELAEYLIKPLNKMYLEVVRSVFMSSTSASGTGRKRTIKDLQEEVSNLYNNIRLFEKGMKYFADDTQTALTKHLLKTVCTDITNLMFNFLASDFLMAVEEPAAITSDIRKKILSKLTEETKVALTKLHNSLNEKSIEDFLSCLDSATEACDIMVKKGDKKRERQILFQHRQALCEQLKVTEDPALILHLTAVLLFQLSTHSMLHAPGRCVPQIIAFLHSKIPEDQHTLLVKYQGLVVKQLVSQNKKTGQGEDPSSDELDKEQHDVTNATRKELQELSLSIKDLVLKSRKSSVTEE

binding [5]: binds
B4: UFSP2 (enzyme, UniProt Q99K23 1-461)
chain: MDILFRIRGGFDLAFQLAPPKEMFIKNALRQVLSDLTTKLSSDALVLRVCNSSVYLWPNSDANTGELTDSSACKNVVRFIQFDQEEDTKRKFIKKKDKKLTDTQQIVNIDLMLEISTPLGAVTPILERENEEHHYINMSLPIDAVVSVAPEESWGKVRKLLVDAILRQLVDVEKCILRYMKGTSIVVPEPLHFQLPGKKNLVTVLYPSGIPDDQLQAYRKELHDLFNLPHDRPYFKRINAYHFPDELYKDGYIRNPHTYLSPPNIEGSMICVVQGTYAYHHYMQDRIDDNGWGCAYRSLQTICSWFRHQGYTERSIPTHREIQQALVDAGDKPATFVGSRQWIGSIEVQMVLNQLIGVTSKILFVNQGSEMASQGRELANHFQNVGTPVMVGGGVLAHTILGVAWNETTGQIKFLILDPHYTGAEDLQVMLEKGWCGWKSPDFWNKDAYYNLCLPQRPNAL

The remaining lines, values behind:

Molecule: GFP-labeled UFM1 (WT) (from UniProt P61961 1-85)
binding [1]: binds

Molecule: RBPJ (from UniProt P31266 1-526)
binding [2]: binds

Molecule: His-labeled RBPJ (WT) (from UniProt P31266 1-526)
binding [1]: binds

B2: UFL1 (enzyme, UniProt Q8CCJ3 1-793)
chain: MADAWEEIRRLAADFQRAQFAESTQRLSERNCIEIVNKLISQKQLEVVHTLDGKEYITPAQISKEMRDELHVRGGRVNIVDLQQVINVDLTHIESRVSDIIKSEKHVQMVLGQLIDENYLDQLSEEVNDKLQESGQVTVSELCKAYDLPGDFLTQALTQRLGRIINGHLDLDNRGVIFTEAFVARHKARIRGLFSAITRPTPVNSLVSKYGFQEQLLYSVLEDLVSTGRLRGTVVGGRQDKAVFVPDIYSRTQSTWVDSFFRQNGYLEFDALSRLGIPDAVNYIKKRYKNTQLLFLKATCVGQGLVDQVEASVEEAISSGTWVDISPLLPSSLSVEDAAMLLQQVMRPFGKLASAIVFSDTVVVSEKFITDCTGLFSERMHQKAEKEMKNNPVHLITEEDLKQISILESVNTSKKDKKDERRKKATEGSGSVRGGGGGNAREYKIKKTKKKGRKDEDSDDESQSSHGGKKKPDITFMFQDEIEDCLRKHIQDAPEEFISELAEYLIKPLNKMYLEVVRSVFMSSTSASGTGRKRTIKDLQEEVSNLYNNIRLFEKGMKYFADDTQTALTKHLLKTVCTDITNLMFNFLASDFLMAVEEPAAITSDIRKKILSKLTEETKVALTKLHNSLNEKSIEDFLSCLDSATEACDIMVKKGDKKRERQILFQHRQALCEQLKVTEDPALILHLTAVLLFQLSTHSMLHAPGRCVPQIIAFLHSKIPEDQHTLLVKYQGLVVKQLVSQNKKTGQGEDPSSDELDKEQHDVTNATRKELQELSLSIKDLVLKSRKSSVTEE
binding [3]: binds | binding [4]: no binding (condition: in Cd36-KO CD3+ T cells) | binding [5]: binds | binding [6]: no binding

B3: Flag-labeled UFSP2 (WT) (enzyme, UniProt Q99K23 1-461)
chain: MDILFRIRGGFDLAFQLAPPKEMFIKNALRQVLSDLTTKLSSDALVLRVCNSSVYLWPNSDANTGELTDSSACKNVVRFIQFDQEEDTKRKFIKKKDKKLTDTQQIVNIDLMLEISTPLGAVTPILERENEEHHYINMSLPIDAVVSVAPEESWGKVRKLLVDAILRQLVDVEKCILRYMKGTSIVVPEPLHFQLPGKKNLVTVLYPSGIPDDQLQAYRKELHDLFNLPHDRPYFKRINAYHFPDELYKDGYIRNPHTYLSPPNIEGSMICVVQGTYAYHHYMQDRIDDNGWGCAYRSLQTICSWFRHQGYTERSIPTHREIQQALVDAGDKPATFVGSRQWIGSIEVQMVLNQLIGVTSKILFVNQGSEMASQGRELANHFQNVGTPVMVGGGVLAHTILGVAWNETTGQIKFLILDPHYTGAEDLQVMLEKGWCGWKSPDFWNKDAYYNLCLPQRPNAL
binding [1]: binds
